Results are given in words; binding and its absence hold for the method and conditions named. In cells and extracts the contact can be indirect. Some binding calls cover weakened binding; strength is not graded here.
Target: Inhibitory PAS Domain Protein (IPAS), in vitro translated (mouse)
Test: coimmunoprecipitation of 35S-IPAS with anti-GAL4 antibody, in vitro translated proteins

Protein sequences, listed by entry. Tags and fused reporters are not part of them. Lines headed by an entry give the natural chain unless they say otherwise; changes in a name come on top.
UniProt P04386: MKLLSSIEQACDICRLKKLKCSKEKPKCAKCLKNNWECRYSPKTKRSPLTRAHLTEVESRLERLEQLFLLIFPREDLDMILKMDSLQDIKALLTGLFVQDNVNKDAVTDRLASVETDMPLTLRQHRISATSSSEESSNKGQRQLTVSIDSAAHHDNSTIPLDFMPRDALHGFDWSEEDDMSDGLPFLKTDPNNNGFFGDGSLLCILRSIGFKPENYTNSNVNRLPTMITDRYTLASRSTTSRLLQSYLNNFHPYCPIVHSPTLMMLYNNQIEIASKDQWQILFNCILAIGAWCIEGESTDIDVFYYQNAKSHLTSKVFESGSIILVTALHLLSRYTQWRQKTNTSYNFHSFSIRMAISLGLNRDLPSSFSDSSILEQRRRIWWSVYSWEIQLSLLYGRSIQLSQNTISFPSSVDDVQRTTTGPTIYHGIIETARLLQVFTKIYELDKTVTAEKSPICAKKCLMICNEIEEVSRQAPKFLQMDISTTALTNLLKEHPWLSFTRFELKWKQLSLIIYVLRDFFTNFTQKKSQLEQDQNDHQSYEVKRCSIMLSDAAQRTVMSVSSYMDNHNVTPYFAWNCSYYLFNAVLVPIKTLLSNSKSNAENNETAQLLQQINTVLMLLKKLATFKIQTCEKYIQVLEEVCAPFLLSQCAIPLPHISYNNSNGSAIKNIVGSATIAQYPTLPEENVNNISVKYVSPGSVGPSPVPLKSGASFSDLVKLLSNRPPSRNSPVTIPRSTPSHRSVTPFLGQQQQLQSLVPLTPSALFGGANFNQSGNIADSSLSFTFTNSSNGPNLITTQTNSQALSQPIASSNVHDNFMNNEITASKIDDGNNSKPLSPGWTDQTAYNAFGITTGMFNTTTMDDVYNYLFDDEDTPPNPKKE

## GAL4-HIF-1α/1-652 (from UniProt P04386 1-147; Q16665 1-652)
  binding: binds

## GAL4-HIF-1α/1-826 (full length) (from UniProt P04386 1-147; Q16665 1-826)
  binding: binds

## GAL4-HIF-1α/1-330 (from UniProt P04386 1-147; Q16665 1-330)
  binding: binds

Reference: US20020165140A1
